We go through one molecule from PMC7450955.

Results are given in words; binding and its absence hold for the method and conditions named. Binding seen in cells or lysates may run through a third protein. For some of these results: Binding can be weak; no strength is given.

Among the targets are APOL1-B1-FLAG (human); APOL1-B3-G1-FLAG (human); APOL1-B3-G2-FLAG (human); APOL1-C-FLAG (human).
Holding throughout (test): co-IP; NLRP12 and FLAG-tagged APOL1 constructs cotransfected into HeLa cells; APOL1 immunoprecipitated with anti-FLAG antibodies; western analysis for NLRP12
Experiment [1] concerns the target APOL1-B3-FLAG (wild type, G0) (human).
For experiment [2], the target named is APOL1-B3-G0 C-del (C-terminal SRA binding domain deleted) (human).
Experiment [3] concerns the target APOL1-B3-G0 M-del (membrane-addressing domain deleted) (human).

B1: NLRP12 (transfected) (protein, UniProt P59046 1-1061)
chain: MLRTAGRDGLCRLSTYLEELEAVELKKFKLYLGTATELGEGKIPWGSMEKAGPLEMAQLLITHFGPEEAWRLALSTFERINRKDLWERGQREDLVRDTPPGGPSSLGNQSTCLLEVSLVTPRKDPQETYRDYVRRKFRLMEDRNARLGECVNLSHRYTRLLLVKEHSNPMQVQQQLLDTGRGHARTVGHQASPIKIETLFEPDEERPEPPRTVVMQGAAGIGKSMLAHKVMLDWADGKLFQGRFDYLFYINCREMNQSATECSMQDLIFSCWPEPSAPLQELIRVPERLLFIIDGFDELKPSFHDPQGPWCLCWEEKRPTELLLNSLIRKKLLPELSLLITTRPTALEKLHRLLEHPRHVEILGFSEAERKEYFYKYFHNAEQAGQVFNYVRDNEPLFTMCFVPLVCWVVCTCLQQQLEGGGLLRQTSRTTTAVYMLYLLSLMQPKPGAPRLQPPPNQRGLCSLAADGLWNQKILFEEQDLRKHGLDGEDVSAFLNMNIFQKDINCERYYSFIHLSFQEFFAAMYYILDEGEGGAGPDQDVTRLLTEYAFSERSFLALTSRFLFGLLNEETRSHLEKSLCWKVSPHIKMDLLQWIQSKAQSDGSTLQQGSLEFFSCLYEIQEEEFIQQALSHFQVIVVSNIASKMEHMVSSFCLKRCRSAQVLHLYGATYSADGEDRARCSAGAHTLLVQLPERTVLLDAYSEHLAAALCTNPNLIELSLYRNALGSRGVKLLCQGLRHPNCKLQNLRLKRCRISSSACEDLSAALIANKNLTRMDLSGNGVGFPGMMLLCEGLRHPQCRLQMIQLRKCQLESGACQEMASVLGTNPHLVELDLTGNALEDLGLRLLCQGLRHPVCRLRTLWLKICRLTAAACDELASTLSVNQSLRELDLSLNELGDLGVLLLCEGLRHPTCKLQTLRLGICRLGSAACEGLSVVLQANHNLRELDLSFNDLGDWGLWLLAEGLQHPACRLQKLWLDSCGLTAKACENLYFTLGINQTLTDLYLTNNALGDTGVRLLCKRLSHPGCKLRVLWLFGMDLNKMTHSRLAALRVTKPYLDIGC
As to B1, the binding entry with APOL1-B1-FLAG (human) is “no binding”; in experiment [1], “binds”; in experiment [2] it was “binds”; in experiment [3], “binds”; with APOL1-B3-G1-FLAG (human), “binds”; in the experiment with APOL1-B3-G2-FLAG (human) it was “binds”. Moreover, in the experiment with APOL1-C-FLAG (human), the binding result is listed as “binds”.
